PubChem BioAssay AID1224826 – NIAID, 2016
Assay: 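Knock-downs that raise or lower Tnf reporter signal after endotoxin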 (primary screen). Cell system: RAW264.7 G9 macrophages from mouse bearing reporters for p65 (GFP) and the Tnf promoter (mCherry). Reagent: siRNA pool against mouse genes, 100 nM. Time to read-out: 16 h of LPS stimulation, after 2 days of siRNA transfection. Challenge: bacterial lipopolysaccharide (Salmonella minnesota R595), 10 ng/ml. Measurement: 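Nuclear mCherry signal of the Tnf promoter reporter measured by imaging after background removal, scaled to each plate median and turned into robust z-scores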. Reading the numbers: Tnf reporter robust z-score: higher = stronger Tnf promoter reporter signal after LPS; Tnf reporter intensity: higher = stronger Tnf promoter reporter signal. Active means: 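a well counts as active at a score of -1.3 or below (Tlr4 knock-down control median) or above 3 (raised signal); controls and wells holding fewer than 50 cells are excluded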. Meaning of the calls: active = Tnf reporter clearly lowered or raised; inactive = no clear change in Tnf reporter.
This is a random part of about 17,000 reagents tested. Over the whole deposit, about 1,110 (6.6%) were called active. 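Active means lowered or raised reporter signal; replicate intensities are raw and not normalised per plate.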 Reagents against one gene are numbered here. Reagent sequences are not shown.

| gene | reagent | Tnf reporter robust z-score | fewer than 50 cells in well | Tnf reporter intensity, replicate 1 | Tnf reporter intensity, replicate 2 | call |
| --- | --- | --- | --- | --- | --- | --- |
| C030006K11Rik (RIKEN cDNA C030006K11 gene) | 1 | 2.02 | enough cells in well | 206 | 247 | inactive |
| Reln (reelin) | 1 | -0.07 | enough cells in well | 314 | 191 | inactive |
| Rasgef1b (RasGEF domain family, member 1B) | 1 | 1.16 | enough cells in well | 217 | 143 | inactive |
| Ylpm1 (YLP motif containing 1) | 1 | 1.38 | enough cells in well | 142 | 189 | inactive |
| Mvd (mevalonate (diphospho) decarboxylase) | 1 | -1.3 | enough cells in well | 111 | 89.3 | active |
| Stx1b (syntaxin 1B) | 1 | -0.15 | enough cells in well | 101 | 88.4 | inactive |
| Stx1b (syntaxin 1B) | 2 | -0.34 | enough cells in well | 96.1 | 51 | inactive |
| Foxe1 (forkhead box E1) | 1 | 0.04 | enough cells in well | 276 | 225 | inactive |
| Tyro3 (TYRO3 protein tyrosine kinase 3) | 1 | -0.33 | enough cells in well | 158 | 69.6 | inactive |
| Eri1 (exoribonuclease 1) | 1 | 2.14 | enough cells in well | 216 | 149 | inactive |
| Ptprf (protein tyrosine phosphatase receptor type F) | 1 | 0.04 | enough cells in well | 323 | 202 | inactive |
| 3110040N11Rik (RIKEN cDNA 3110040N11 gene) | 1 | 0.16 | enough cells in well | 182 | 108 | inactive |
| Atf6b (activating transcription factor 6 beta) | 1 | 0.1 | enough cells in well | 249 | 203 | inactive |
| Cry1 (cryptochrome circadian regulator 1) | 1 | 0.83 | enough cells in well | 283 | 364 | inactive |
| Slc3a2 | 1 | – | fewer than 50 cells per well; well left out of calls | 63.9 | 98.6 | inactive |
| Tmed9 (transmembrane p24 trafficking protein 9) | 1 | – | fewer than 50 cells per well; well left out of calls | 105 | 38.8 | inactive |
| Gapdh (glyceraldehyde-3-phosphate dehydrogenase) | 1 | -0.8 | enough cells in well | 141 | 71.9 | inactive |
| Gapdh (glyceraldehyde-3-phosphate dehydrogenase) | 2 | -1.22 | enough cells in well | 143 | 86.4 | inactive |
| Isg20 (interferon-stimulated protein) | 1 | -0.23 | enough cells in well | 221 | 139 | inactive |
| 9430077A04Rik (RIKEN cDNA 9430077A04 gene) | 1 | -0.26 | enough cells in well | 176 | 160 | inactive |
| Rpl10a (ribosomal protein L10A) | 1 | -0.15 | enough cells in well | 126 | 110 | inactive |
| Lurap1l (leucine rich adaptor protein 1-like) | 1 | 0.17 | enough cells in well | 209 | 162 | inactive |
| Sec13 (SEC13 homolog, nuclear pore and COPII coat complex component) | 1 | 0.02 | enough cells in well | 102 | 88.9 | inactive |
| Guk1 (guanylate kinase 1) | 1 | 1.56 | enough cells in well | 270 | 321 | inactive |
| Parp12 (poly (ADP-ribose) polymerase family, member 12) | 1 | -0.01 | enough cells in well | 121 | 82.7 | inactive |
| Klhdc4 (kelch domain containing 4) | 1 | -0.8 | enough cells in well | 162 | 138 | inactive |
| Slc39a14 | 1 | – | fewer than 50 cells per well; well left out of calls | 50.2 | 50 | inactive |
| Lime1 (Lck interacting transmembrane adaptor 1) | 1 | 1.66 | enough cells in well | 339 | 125 | inactive |
| Arfip2 (ARF interacting protein 2) | 1 | – | fewer than 50 cells per well; well left out of calls | 90.5 | 105 | inactive |
| Orc5 (origin recognition complex, subunit 5) | 1 | 0.55 | enough cells in well | 191 | 142 | inactive |
| Tapt1 (transmembrane anterior posterior transformation 1) | 1 | – | fewer than 50 cells per well; well left out of calls | 116 | 46.4 | inactive |
| Phf19 (PHD finger protein 19) | 1 | – | fewer than 50 cells per well; well left out of calls | 149 | 123 | inactive |
| Krt6b (keratin 6B) | 1 | -1.21 | enough cells in well | 153 | 81 | inactive |

Sorted by “Tnf reporter intensity, replicate 2” (low to high): some entries from above
| gene | reagent | Tnf reporter robust z-score | fewer than 50 cells in well | Tnf reporter intensity, replicate 1 | Tnf reporter intensity, replicate 2 | call |
| --- | --- | --- | --- | --- | --- | --- |
| Slc39a14 | 1 | – | fewer than 50 cells per well; well left out of calls | 50.2 | 50 | inactive |
| Parp12 (poly (ADP-ribose) polymerase family, member 12) | 1 | -0.01 | enough cells in well | 121 | 82.7 | inactive |
| Sec13 (SEC13 homolog, nuclear pore and COPII coat complex component) | 1 | 0.02 | enough cells in well | 102 | 88.9 | inactive |
| Rpl10a (ribosomal protein L10A) | 1 | -0.15 | enough cells in well | 126 | 110 | inactive |
| Klhdc4 (kelch domain containing 4) | 1 | -0.8 | enough cells in well | 162 | 138 | inactive |
| Isg20 (interferon-stimulated protein) | 1 | -0.23 | enough cells in well | 221 | 139 | inactive |
| 9430077A04Rik (RIKEN cDNA 9430077A04 gene) | 1 | -0.26 | enough cells in well | 176 | 160 | inactive |
| Lurap1l (leucine rich adaptor protein 1-like) | 1 | 0.17 | enough cells in well | 209 | 162 | inactive |
| Guk1 (guanylate kinase 1) | 1 | 1.56 | enough cells in well | 270 | 321 | inactive |

More reagents follow:
| gene | reagent | Tnf reporter robust z-score | fewer than 50 cells in well | Tnf reporter intensity, replicate 1 | Tnf reporter intensity, replicate 2 | call |
| --- | --- | --- | --- | --- | --- | --- |
| Psmb8 | 1 | – | fewer than 50 cells per well; well left out of calls | 85.6 | 89.3 | inactive |
| Mefv (Mediterranean fever) | 1 | -0.37 | enough cells in well | 260 | 155 | inactive |
| Cytip (cytohesin 1 interacting protein) | 1 | -1.49 | enough cells in well | 73.9 | 55.2 | active |
| Pou2af1 (POU domain, class 2, associating factor 1) | 1 | -0.93 | enough cells in well | 160 | 139 | inactive |
| Tmed6 (transmembrane p24 trafficking protein 6) | 1 | – | fewer than 50 cells per well; well left out of calls | 176 | 46.8 | inactive |
| Mfge8 (milk fat globule EGF and factor V/VIII domain containing) | 1 | -0.17 | enough cells in well | 173 | 143 | inactive |
| Ift88 (intraflagellar transport 88) | 1 | -0.23 | enough cells in well | 109 | 45.4 | inactive |
| Tsn (translin) | 1 | – | fewer than 50 cells per well; well left out of calls | 83.8 | 66.8 | inactive |
| Wbp2 (WW domain binding protein 2) | 1 | 0.23 | enough cells in well | 310 | 222 | inactive |
| Rprm (reprimo, TP53 dependent G2 arrest mediator candidate) | 1 | -0.46 | enough cells in well | 151 | 114 | inactive |
| Lgi2 (leucine-rich repeat LGI family, member 2) | 1 | -0.04 | enough cells in well | 176 | 154 | inactive |
| Zfp825 (zinc finger protein 825) | 1 | -0.57 | enough cells in well | 152 | 185 | inactive |
| Gpx5 (glutathione peroxidase 5) | 1 | -0.29 | enough cells in well | 218 | 151 | inactive |
| Sall2 (spalt like transcription factor 2) | 1 | -1.03 | enough cells in well | 103 | 63.2 | inactive |
| Lao1 (L-amino acid oxidase 1) | 1 | 0.69 | enough cells in well | 283 | 130 | inactive |
| Xpo4 (exportin 4) | 1 | 0.11 | enough cells in well | 79 | 186 | inactive |
| Rttn (rotatin) | 1 | -0.99 | enough cells in well | 96.9 | 73.6 | inactive |
| Cyb561d2 (cytochrome b-561 domain containing 2) | 1 | -1.34 | enough cells in well | 91.2 | 149 | active |
| Csnk1d (casein kinase 1, delta) | 1 | 1.37 | enough cells in well | 287 | 148 | inactive |
| Rtl8c (retrotransposon Gag like 8C) | 1 | – | fewer than 50 cells per well; well left out of calls | 199 | 37.4 | inactive |
| H2bc21 (H2B clustered histone 21) | 1 | -1.46 | enough cells in well | 134 | 62 | active |
| Sltm (SAFB-like, transcription modulator) | 1 | 0.64 | enough cells in well | 210 | 183 | inactive |
| Hnrnpll (heterogeneous nuclear ribonucleoprotein L-like) | 1 | -0.41 | enough cells in well | 216 | 37.2 | inactive |
| Pdc (phosducin) | 1 | -0.64 | enough cells in well | 241 | 83.5 | inactive |
| Cd300a (CD300A molecule) | 1 | 0.03 | enough cells in well | 185 | 154 | inactive |
